Results are given in words; binding and its absence hold for the method and conditions named. Binding seen in cells or lysates may run through a third protein. These calls come from enrichment with a bait or labelling near it, and not all partners need be listed.
T1: Centrosomal protein 190 (CP190) (Drosophila (endogenous in 0-24 h Oregon R embryos)) (UniProt Q24478)
T1 sequence: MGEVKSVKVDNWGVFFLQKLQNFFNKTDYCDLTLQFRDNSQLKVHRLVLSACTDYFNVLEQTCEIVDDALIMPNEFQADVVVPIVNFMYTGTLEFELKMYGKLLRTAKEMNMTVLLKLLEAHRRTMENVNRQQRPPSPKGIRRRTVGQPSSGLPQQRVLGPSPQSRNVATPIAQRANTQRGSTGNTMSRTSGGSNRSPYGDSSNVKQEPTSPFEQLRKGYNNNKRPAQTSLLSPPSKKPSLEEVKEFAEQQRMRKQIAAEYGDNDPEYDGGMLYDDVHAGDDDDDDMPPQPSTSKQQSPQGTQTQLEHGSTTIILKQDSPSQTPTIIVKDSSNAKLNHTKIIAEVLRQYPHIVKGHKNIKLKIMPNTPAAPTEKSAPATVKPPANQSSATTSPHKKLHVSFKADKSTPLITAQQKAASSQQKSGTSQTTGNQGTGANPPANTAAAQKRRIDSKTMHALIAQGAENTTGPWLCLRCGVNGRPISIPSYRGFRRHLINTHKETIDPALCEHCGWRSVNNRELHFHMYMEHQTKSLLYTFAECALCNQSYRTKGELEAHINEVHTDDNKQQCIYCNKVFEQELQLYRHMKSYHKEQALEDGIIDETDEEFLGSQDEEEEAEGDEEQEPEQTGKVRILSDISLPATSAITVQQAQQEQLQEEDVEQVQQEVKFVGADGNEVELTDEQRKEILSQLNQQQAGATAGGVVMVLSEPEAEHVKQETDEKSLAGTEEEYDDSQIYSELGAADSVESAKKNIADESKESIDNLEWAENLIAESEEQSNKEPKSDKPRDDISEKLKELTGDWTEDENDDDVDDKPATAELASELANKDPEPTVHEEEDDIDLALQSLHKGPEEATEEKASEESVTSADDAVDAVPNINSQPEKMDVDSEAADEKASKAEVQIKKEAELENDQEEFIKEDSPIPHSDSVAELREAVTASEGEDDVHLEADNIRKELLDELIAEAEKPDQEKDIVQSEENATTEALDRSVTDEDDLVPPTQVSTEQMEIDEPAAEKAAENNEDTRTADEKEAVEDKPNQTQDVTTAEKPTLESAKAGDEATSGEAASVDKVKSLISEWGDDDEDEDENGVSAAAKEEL

The chains behind the UniProt entries cited, without tags or fusion partners. Where a name states a change or a piece, a line headed by the entry shows the natural chain unless it says otherwise.
UniProt Q9VHG6: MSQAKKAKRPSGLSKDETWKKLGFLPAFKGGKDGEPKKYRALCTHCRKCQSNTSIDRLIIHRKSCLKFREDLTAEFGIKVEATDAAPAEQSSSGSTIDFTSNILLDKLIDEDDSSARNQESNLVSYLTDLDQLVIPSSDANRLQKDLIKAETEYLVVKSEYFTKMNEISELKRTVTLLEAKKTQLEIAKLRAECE

T2: Suppressor of Hairy wing [Su(Hw)] (Drosophila (endogenous in 0-24 h Oregon R embryos)) (UniProt P08970)
T2 sequence: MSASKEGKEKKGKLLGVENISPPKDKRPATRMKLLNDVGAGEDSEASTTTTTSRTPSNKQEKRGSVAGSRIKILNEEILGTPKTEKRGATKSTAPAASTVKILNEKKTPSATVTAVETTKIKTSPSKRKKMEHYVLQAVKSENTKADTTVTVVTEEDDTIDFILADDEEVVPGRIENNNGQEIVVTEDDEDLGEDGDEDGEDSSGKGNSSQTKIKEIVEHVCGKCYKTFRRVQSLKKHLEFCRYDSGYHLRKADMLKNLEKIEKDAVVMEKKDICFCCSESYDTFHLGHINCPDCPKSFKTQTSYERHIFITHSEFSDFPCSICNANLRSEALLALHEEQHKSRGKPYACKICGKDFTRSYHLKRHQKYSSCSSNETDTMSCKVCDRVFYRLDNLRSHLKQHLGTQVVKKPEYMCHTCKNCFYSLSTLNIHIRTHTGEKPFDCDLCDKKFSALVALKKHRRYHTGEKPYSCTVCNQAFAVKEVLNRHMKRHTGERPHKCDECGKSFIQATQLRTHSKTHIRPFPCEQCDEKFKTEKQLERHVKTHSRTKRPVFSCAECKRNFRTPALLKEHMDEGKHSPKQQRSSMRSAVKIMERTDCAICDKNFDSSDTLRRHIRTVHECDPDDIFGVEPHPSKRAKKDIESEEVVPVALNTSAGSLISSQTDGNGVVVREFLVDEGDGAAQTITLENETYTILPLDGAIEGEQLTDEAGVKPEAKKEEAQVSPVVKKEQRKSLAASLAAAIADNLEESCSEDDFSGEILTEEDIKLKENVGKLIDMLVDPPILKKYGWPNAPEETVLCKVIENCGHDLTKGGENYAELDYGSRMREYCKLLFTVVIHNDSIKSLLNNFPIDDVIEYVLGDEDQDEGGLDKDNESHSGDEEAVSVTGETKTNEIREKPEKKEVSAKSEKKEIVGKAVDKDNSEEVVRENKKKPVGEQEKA


How the values were obtained:
[1] = target: T1, Centrosomal protein 190 (CP190) (Drosophila (endogenous in 0-24 h Oregon R embryos)); assay: affinity purification with mass spectrometry; immunoaffinity purification from Drosophila embryonic (0-24 h) nuclear extract in HBSMT (50 mM HEPES pH 6.7, 150 mM NaCl, 5 mM KCl, 2.5 mM MgCl2, 0.3% Triton X-100) with antibodies specific for Su(Hw) or CP190; beads washed twice with HBSMT, once with HBSM, eluted with 1% sodium dodecanoate; six replicates pooled; tandem HPLC-mass spectrometry
[2] = target: T2, Suppressor of Hairy wing [Su(Hw)] (Drosophila (endogenous in 0-24 h Oregon R embryos)); assay: as above

| Molecule | binding [1] | binding [2] |
| --- | --- | --- |
| Ibf2 (from UniProt Q9VHG6) | binds | binds |
| Motif 1 Binding Protein (M1BP) (natural protein, UniProt Q9VHM3 1-418, looked up, endogenous protein in embryonic nuclear extract; source: endogenous, nuclear extract of 0-24 h Drosophila embryos) MSKSALKHLKSTCRVCAKYASNKRSPKLFERSNTKMIDNIEALTGLRLENYGCLPDQICECCSMELASAVKLRERCIAAQRELLLGLTEEQRQGISAFYRAAVMGEDIVQTVKTPDDDEVYATYQEIVLEEPKEEIDDTKVEYDNTYYEVAEGHAGEDDAASLIEEADYDSIMAEDEEQQQTLELDEDTELIVGDVNDAYVYDSDDEVAVLDNVLDDEYEHENIVVKKCSLPPKPKVRSDDARRRGTGGVYICEQCGNHIKGRMAFELHCRRHRGDKQFGCELCQSRFCTTSELKRHMRKHTGERPFACKYCGRCFTDYTTRVKHERTHTNERPYVCGTCGKAFTTGYILKNHMLIHSGERAYRCELCDKSFMLPTHLSTHFRSGVHKRHLEKAEMKQVLEQEQKRELKEEEEDSLHI | binds | binds |
| CCCTC-binding Factor (CTCF), Drosophila (protein, UniProt Q9VS55 1-818) MPRRTKKDEDPEDLQTFLNNFHKEIEGNSDEKVVNTILEAISAEAIDLDENGAEAGGSKPMEEAEADLDHAEEAEEEEEDDEDKYFIDDEGNCYIKTTPKKQKELQKKLKQAAAKPGKATRSVVSTATNKSINLRPAKSTPKATTSKPPPEPKAISVRPARAAAAKAKQSAMPPPPALVVKVPAPRGRPRKNPVIPKPEPMDLERELEELVDEPDISSMVTELSDYTVDEAAVEAATATLTPNEAEVYEFEDNATTEDENADKKDVDFVLSNKEVKLKTASSTSQNSNASGHKYSCPHCPYTASKKFLITRHSRSHDVEPSFKCSICERSFRSNVGLQNHINTHMGNKPHKCKLCESAFTTSGELVRHTRYKHTKEKPHKCTECTYASVELTKLRRHMTCHTGERPYQCPHCTYASQDMFKLKRHMVIHTGEKKYQCDICKSRFTQSNSLKAHKLIHSVVDKPVFQCNYCPTTCGRKADLRVHIKHMHTSDVPMTCRRCGQQLPDRYQYKLHVKSHEGEKCYSCKLCSYASVTQRHLASHMLIHLDEKPFHCDQCPQAFRQRQLLRRHMNLVHNEEYQPPEPREKLHKCPSCPREFTHKGNLMRHMETHDDSANAREKRRRLKLGRNVRLQKDGTVITLIKDQYVDMDRDQEENEEDDNPESYDLAEIEPENSEAEDADDDVETIVSDPIRQRIKPAPIIINKQARLAASEKQPMIINQRLRSQRGTKTFHIKEEPDNSDFTVEWQGDDGEVMVVELVNGDEEVLVKHEPSANSKISAKNCFGFEDDDDYEEYGDGENEVDGASQEFLQLMDMIEQDS | binds | binds |

Second part, the molecule after the results:

| binding [1] | binding [2] | Molecule |
| --- | --- | --- |
| – | binds | BEAF-32 |
| binds | binds | Ibf1 |

— publication PMC8263732, “M1BP cooperates with CP190 to activate transcription at TAD borders and promote chromatin insulator activity” (Nature Communications, 2021)
